Experimental data: PubChem BioAssay AID1508588 (Peter MacCallum Cancer Centre, 2020)

Purpose: 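Knock-downs boosting vemurafenib effects on melanoma cell growth or lactate release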 (primary screen)
Cell system: human WM266.4 melanoma cells (BRAF V600 mutant)
Knock-down reagent: siRNA pool against human genes, 40 nM
Duration: 96 h from transfection to read-out
Challenge: vemurafenib 300 nM (about IC25), added 48 h after transfection, for 48 h; comparison arm got DMSO vehicle only
Measurement: 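Cell gain (DAPI nuclei at end minus before drug, mean of two replicates) and medium lactate by absorbance per cell, both as ratio to non-targeting siRNA, also grouped into fold-change classes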
Direction: cell gain with vemurafenib: higher = more cell gain than with non-targeting siRNA; lactate per cell with vemurafenib: higher = more lactate made per cell
Hit rule: 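a knock-down counts as enhancing when its fold-change classes with vehicle and with vemurafenib, taken together, show a stronger drug effect on cell gain or lactate per cell; exact class pairs not stated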
Meaning of the calls: active = enhances vemurafenib effect; inactive = no enhancement seen
Shown is one part, drawn at random, of about 18,000 reagents tested. In the full data, 790 (4.4%) got an active call. 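Calls rest on a combination of fold-change classes in drug and vehicle arms, not all shown here.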 Reagents against one gene are numbered here. Reagent sequences are not shown.

target | reagent | cell gain with vemurafenib | lactate per cell with vemurafenib | activity call
KRT10-AS1 (KRT10 antisense RNA 1) | 1 | 0.57 | 0.8 | inactive
TACR2 (tachykinin receptor 2) | 1 | 0.47 | 0.82 | inactive
CHST2 (carbohydrate sulfotransferase 2) | 1 | 0.7 | 1 | inactive
SLC38A10 | 1 | 0.08 | 0.44 | active
KNG1 (kininogen 1) | 1 | 0.54 | 1.23 | inactive
WRAP53 (WD repeat containing antisense to TP53) | 1 | 0.76 | 0.99 | inactive
PEG3 (paternally expressed 3) | 1 | 0.29 | 0.38 | inactive
HTR1F (5-hydroxytryptamine receptor 1F) | 1 | 0.65 | 0.86 | inactive
PDLIM3 (PDZ and LIM domain 3) | 1 | -0.02 | 3.34 | inactive
STAB2 (stabilin 2) | 1 | 0.4 | 0.38 | active
OR2M4 (olfactory receptor family 2 subfamily M member 4) | 1 | 0.63 | 1.17 | inactive
PWP2 (PWP2 small subunit processome component) | 1 | 0.26 | 0.76 | inactive
PHTF1 (putative homeodomain transcription factor 1) | 1 | 0.75 | 0.83 | inactive
ABCC1 | 1 | 0.82 | 0.74 | inactive
IMMP1L (inner mitochondrial membrane peptidase subunit 1) | 1 | 0.84 | 0.64 | inactive
BHMT (betaine--homocysteine S-methyltransferase) | 1 | 0.57 | 0.7 | inactive
KCTD15 (potassium channel tetramerization domain containing 15) | 1 | 0.19 | 1.49 | inactive
ASZ1 | 1 | 0.24 | 0.69 | inactive
NUPR1 (nuclear protein 1, transcriptional regulator) | 1 | 0.68 | 0.42 | inactive
MYH7B (myosin heavy chain 7B) | 1 | 0.5 | 0.26 | inactive
HPD (4-hydroxyphenylpyruvate dioxygenase) | 1 | 0.56 | 2.56 | inactive
ICAM1 (intercellular adhesion molecule 1) | 1 | 0.13 | 2.22 | inactive
LRRTM2 (leucine rich repeat transmembrane neuronal 2) | 1 | 0.85 | 0.44 | active
EBPL (EBP like) | 1 | 0.81 | 0.74 | inactive
SSX2IP (SSX family member 2 interacting protein) | 1 | 0.63 | 1.03 | inactive
RWDD3 (RWD domain containing 3) | 1 | 0.83 | 0.5 | inactive
DEPDC5 (DEP domain containing 5, GATOR1 subcomplex subunit) | 1 | 1.03 | 0.55 | inactive
HLA-DMB (major histocompatibility complex, class II, DM beta) | 1 | 0.49 | 1.36 | inactive
NAA11 (N-alpha-acetyltransferase 11, NatA catalytic subunit) | 1 | 0.55 | 1.04 | inactive
ADCY9 (adenylate cyclase 9) | 1 | 1.06 | 0.53 | inactive
MOCS2 (molybdenum cofactor synthesis 2) | 1 | 0.68 | 1.13 | inactive
CD3G (CD3 gamma subunit of T-cell receptor complex) | 1 | 0.79 | 0.56 | inactive
DIS3L (DIS3 like exosome 3'-5' exoribonuclease) | 1 | 0.53 | 0.9 | inactive
LRRC8B (leucine rich repeat containing 8 VRAC subunit B) | 1 | 1.74 | 0.66 | inactive
DUSP11 (dual specificity phosphatase 11) | 1 | 0.73 | 0.88 | inactive
NPLOC4 (NPL4 homolog, ubiquitin recognition factor) | 1 | 1.02 | 0.46 | inactive
PSME3 (proteasome activator subunit 3) | 1 | 0.31 | 1.82 | inactive

Quoted from the listing, 17 entries:
target | reagent | cell gain with vemurafenib | lactate per cell with vemurafenib | activity call
PWP2 (PWP2 small subunit processome component) | 1 | 0.26 | 0.76 | inactive
PHTF1 (putative homeodomain transcription factor 1) | 1 | 0.75 | 0.83 | inactive
ABCC1 | 1 | 0.82 | 0.74 | inactive
IMMP1L (inner mitochondrial membrane peptidase subunit 1) | 1 | 0.84 | 0.64 | inactive
BHMT (betaine--homocysteine S-methyltransferase) | 1 | 0.57 | 0.7 | inactive
KCTD15 (potassium channel tetramerization domain containing 15) | 1 | 0.19 | 1.49 | inactive
ASZ1 | 1 | 0.24 | 0.69 | inactive
NUPR1 (nuclear protein 1, transcriptional regulator) | 1 | 0.68 | 0.42 | inactive
MYH7B (myosin heavy chain 7B) | 1 | 0.5 | 0.26 | inactive
HPD (4-hydroxyphenylpyruvate dioxygenase) | 1 | 0.56 | 2.56 | inactive
ICAM1 (intercellular adhesion molecule 1) | 1 | 0.13 | 2.22 | inactive
LRRTM2 (leucine rich repeat transmembrane neuronal 2) | 1 | 0.85 | 0.44 | active
EBPL (EBP like) | 1 | 0.81 | 0.74 | inactive
SSX2IP (SSX family member 2 interacting protein) | 1 | 0.63 | 1.03 | inactive
RWDD3 (RWD domain containing 3) | 1 | 0.83 | 0.5 | inactive
DEPDC5 (DEP domain containing 5, GATOR1 subcomplex subunit) | 1 | 1.03 | 0.55 | inactive
HLA-DMB (major histocompatibility complex, class II, DM beta) | 1 | 0.49 | 1.36 | inactive

The listing continues:
target | reagent | cell gain with vemurafenib | lactate per cell with vemurafenib | activity call
FBP2 (fructose-bisphosphatase 2) | 1 | 0.8 | 0.78 | inactive
CD5L (CD5 molecule like) | 1 | 0.83 | 0.74 | inactive
NOTCH3 (notch receptor 3) | 1 | 1.14 | 0.8 | inactive
AK9 (adenylate kinase 9) | 1 | 0.24 | 0.59 | inactive
AK9 (adenylate kinase 9) | 2 | 0.6 | 1.29 | inactive
AK9 (adenylate kinase 9) | 3 | 0.59 | 0.06 | active
FAM13B (family with sequence similarity 13 member B) | 1 | 0.69 | 1.78 | inactive
GPSM2 (G protein signaling modulator 2) | 1 | 0.8 | 0.82 | inactive
ARMC5 (armadillo repeat containing 5) | 1 | 0.45 | 1.67 | inactive
DTNBP1 (dystrobrevin binding protein 1) | 1 | 0.27 | 0.82 | inactive
BMP8B (bone morphogenetic protein 8b) | 1 | 0.72 | 1.08 | inactive
ETAA1 (ETAA1 activator of ATR kinase) | 1 | 0.52 | 0.78 | inactive
LPIN2 (lipin 2) | 1 | 0.41 | 1.12 | inactive
CFAP107 (cilia and flagella associated protein 107) | 1 | 0.64 | 1.08 | inactive
CHTF18 (chromosome transmission fidelity factor 18) | 1 | 0.72 | 1.18 | inactive
BCLAF1 (BCL2 associated transcription factor 1) | 1 | 0.43 | 0.68 | active
MBD3L2 (methyl-CpG binding domain protein 3 like 2) | 1 | 0.73 | 0.93 | inactive
JAGN1 (jagunal vesicle mediated transporter 1) | 1 | 0.68 | 0.43 | inactive
CYB5B (cytochrome b5 type B) | 1 | 0.73 | 0.98 | inactive
CYLD (CYLD lysine 63 deubiquitinase) | 1 | -0.08 | 2.08 | inactive
CYP11B1 (cytochrome P450 family 11 subfamily B member 1) | 1 | 0.9 | 0.53 | inactive
OR4C12 (olfactory receptor family 4 subfamily C member 12) | 1 | 0.37 | 1.72 | inactive
GSTP1 (glutathione S-transferase pi 1) | 1 | 0.66 | 0.39 | inactive
IL10RB (interleukin 10 receptor subunit beta) | 1 | 0.87 | 0.76 | inactive
CENATAC (centrosomal AT-AC splicing factor) | 1 | 0.06 | 2.68 | inactive
SYP (synaptophysin) | 1 | 0.77 | 0.76 | inactive
LIMD1 (LIM domain containing 1) | 1 | 0.41 | 0.8 | inactive
DPYSL4 (dihydropyrimidinase like 4) | 1 | 1.19 | 0.8 | inactive
SLC25A45 | 1 | 0.59 | 1.27 | inactive
CRYBA1 (crystallin beta A1) | 1 | 0.88 | 0.9 | inactive
WDFY1 (WD repeat and FYVE domain containing 1) | 1 | 1.08 | 0.66 | inactive
GPR37L1 (G protein-coupled receptor 37 like 1) | 1 | 0.44 | 0.72 | inactive
PPP2R2D (protein phosphatase 2 regulatory subunit Bdelta) | 1 | 0.66 | 1.07 | inactive
CDH3 (cadherin 3) | 1 | 0.91 | 1.18 | inactive
TAS2R16 (taste 2 receptor member 16) | 1 | 0.5 | 0.95 | inactive
SPINK1 (serine peptidase inhibitor Kazal type 1) | 1 | 0.55 | 0.46 | inactive
MUC15 (mucin 15, cell surface associated) | 1 | 0.63 | 1.36 | inactive
ZNF557 (zinc finger protein 557) | 1 | 0.6 | 1.1 | inactive
UROC1 (urocanate hydratase 1) | 1 | 0.57 | 1.31 | inactive
GTF3C6 (general transcription factor IIIC subunit 6) | 1 | 0.41 | 1.59 | inactive
BTRC | 1 | 0.3 | 0.72 | inactive
APMAP (adipocyte plasma membrane associated protein) | 1 | 0.82 | 0.82 | inactive
IGFBPL1 (insulin like growth factor binding protein like 1) | 1 | 0.64 | 1.23 | inactive
GPC1 (glypican 1) | 1 | 0.38 | 1.26 | inactive
OC90 (otoconin 90) | 1 | 0.56 | 0.97 | inactive
ANO4 (anoctamin 4) | 1 | 0.9 | 0.5 | inactive
OR5C1 (olfactory receptor family 5 subfamily C member 1) | 1 | 0.49 | 0.35 | inactive
POLN (DNA polymerase nu) | 1 | 0.31 | 0.22 | inactive
TESMIN (testis expressed metallothionein like protein) | 1 | 1.11 | 0.52 | inactive
GRB10 (growth factor receptor bound protein 10) | 1 | 0.29 | 1.16 | inactive
ARHGAP10 (Rho GTPase activating protein 10) | 1 | 0.57 | 0.68 | inactive
TMEM35A (transmembrane protein 35A) | 1 | 1.03 | 0.8 | inactive
AK8 (adenylate kinase 8) | 1 | 0.6 | 1.57 | inactive
SOX4 (SRY-box transcription factor 4) | 1 | 0.75 | 0.7 | inactive
NUAK2 (NUAK family kinase 2) | 1 | 0.72 | 1.36 | inactive
MRTO4 (MRT4 homolog, ribosome maturation factor) | 1 | 0.69 | 1.02 | inactive
LPAR5 (lysophosphatidic acid receptor 5) | 1 | 0.07 | 1.73 | inactive
RASGRP3 (RAS guanyl releasing protein 3) | 1 | 0.18 | 1.96 | inactive
OR2AE1 (olfactory receptor family 2 subfamily AE member 1) | 1 | 0.83 | 0.64 | inactive
SLBP (stem-loop histone mRNA binding protein) | 1 | 0.2 | 1.38 | inactive
GRIN2D (glutamate ionotropic receptor NMDA type subunit 2D) | 1 | 0.48 | 0.54 | inactive
SSX1 (SSX family member 1) | 1 | 0.51 | 0.9 | inactive
HDAC11 (histone deacetylase 11) | 1 | 0.7 | 0.88 | inactive
EMSY (EMSY transcriptional repressor, BRCA2 interacting) | 1 | 0.43 | 1.44 | inactive
BMPR1B (bone morphogenetic protein receptor type 1B) | 1 | 0.86 | 0.84 | inactive
KIR3DP1 | 1 | 0.77 | 0.78 | inactive
JAKMIP1 (janus kinase and microtubule interacting protein 1) | 1 | 1 | 0.62 | inactive
CLEC1B (C-type lectin domain family 1 member B) | 1 | 0.63 | 1.23 | inactive
GGTLC2 (gamma-glutamyltransferase light chain 2) | 1 | 0.04 | 3 | inactive
TMEM39A (transmembrane protein 39A) | 1 | 0.49 | 0.73 | inactive
